Experimental data reported in the supplement of paper PMC6078165.
The reference is the same well before dosing, and untreated signal decays as well.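 Labels refer to human fibroblasts, largely primary: uterine (C12385, HUF), lung (H6013), bone (Hs27A), adrenal (HADF), skin (WS1), plus mammary HMF and breast cancer-associated Hs343T. Cancer lines are basal-like or mesenchymal-like triple-negative breast cancer. The paper counts as hits responses shifting over 3x the replicate standard deviation. The tissue of the other fibroblasts is not given here.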

Tested on: HCC1143
Assay: relative JC-1 red fluorescence (viability) vs pre-drug, coculture with fibroblast (fraction); higher = more viable cancer cells
Description: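 JC-1 labelled TNBC cells cocultured 1:1 (1,500 cells each) with CellTrace Violet stained primary or stromal fibroblasts in 384-well plates in FluoroBrite medium, treated with one of 42 anticancer drugs at 0.1, 1, 10 or 100 uM. JC-1 red fluorescence (mitochondrial integrity in cancer cells only) was read by plate reader every 8 h for 72 h. Values are normalised to each well's pre-drug value. The stock of one drug was tenfold lower, so its dose labels may be too high.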

CCN(CC)CCNC(=O)c1c(C)[nH]c(/C=C2\C(=O)Nc3ccc(F)cc32)c1C [Sunitinib]
relative JC-1 red fluorescence
Conditions	8 h	16 h	24 h	32 h	40 h	48 h	56 h	64 h	72 h
10 µM, coculture fibroblast: C12385	0.832	0.769	0.712	0.6518	0.5715	0.511	0.458	0.392	0.366
10 µM, coculture fibroblast: H6013	0.709	0.625	0.601	0.613	0.528	0.481	0.455	0.431	0.429
10 µM, coculture fibroblast: H6019	0.8555	0.826	0.82	0.787	0.771	0.732	0.69	0.646	0.6
10 µM, coculture fibroblast: H6076	0.7548	0.831	0.815	0.74	0.764	0.741	0.71	0.694	0.675
10 µM, coculture fibroblast: H6231	0.862	0.827	0.846	0.722	0.873	0.849	0.822	0.786	0.715
10 µM, coculture fibroblast: HADF	0.695	0.641	0.604	0.627	0.523	0.469	0.431	0.377	0.39
10 µM, coculture fibroblast: HCFa	0.733	0.635	0.602	0.616	0.524	0.488	0.464	0.433	0.463
10 µM, coculture fibroblast: HCPF	0.791	0.89	0.861	0.644	0.797	0.758	0.712	0.675	0.631
10 µM, coculture fibroblast: HHSteC	0.765	0.706	0.673	0.662	0.579	0.512	0.478	0.431	0.387
10 µM, coculture fibroblast: HMF	0.797	0.89	0.834	0.678	0.78	0.748	0.712	0.641	0.561
10 µM, coculture fibroblast: HPFa	0.8848	0.816	0.798	0.701	0.654	0.6256	0.589	0.546	0.52
10 µM, coculture fibroblast: HUF	0.822	0.688	0.595	0.499	0.43	0.381	0.333	0.285	0.282
10 µM, coculture fibroblast: Hs5	0.794	0.887	0.842	0.773	0.76	0.699	0.646	0.607	0.556
10 µM, coculture fibroblast: Hs27A	0.767	0.694	0.643	0.673	0.558	0.518	0.503	0.484	0.565
10 µM, coculture fibroblast: Hs343T	0.781	0.88	0.829	0.678	0.76	0.725	0.667	0.614	0.572
10 µM, coculture fibroblast: WS1	0.816	0.744	0.703	0.665	0.615	0.561	0.532	0.492	0.458
100 µM, coculture fibroblast: C12385	0.31679	0.244	0.234	0.213	0.189	0.197	0.185	0.159	0.158
100 µM, coculture fibroblast: H6013	0.186	0.16	0.147	0.129	0.109	0.111	0.0908	0.0745	0.0804
100 µM, coculture fibroblast: H6019	0.286	0.24	0.23	0.207	0.196	0.213	0.204	0.186	0.187
100 µM, coculture fibroblast: H6076	0.48	0.358	0.352	0.365	0.308	0.304	0.278	0.268	0.263
100 µM, coculture fibroblast: H6231	0.319	0.225	0.213	0.223	0.192	0.191	0.176	0.168	0.165
100 µM, coculture fibroblast: HADF	0.136	0.0855	0.072	0.0544	0.0388	0.0429	0.0292	0.0363	0.0268
100 µM, coculture fibroblast: HCFa	0.217	0.0955	0.0774	0.0682	0.0577	0.0572	0.0354	0.0245	0.0367
100 µM, coculture fibroblast: HCPF	0.355	0.304	0.292	0.315	0.261	0.257	0.236	0.223	0.219
100 µM, coculture fibroblast: HHSteC	0.217	0.156	0.153	0.139	0.128	0.1302	0.107	0.0999	0.0696
100 µM, coculture fibroblast: HMF	0.239	0.178	0.164	0.178	0.127	0.127	0.109	0.105	0.0993
100 µM, coculture fibroblast: HPFa	0.355	0.228	0.229	0.207	0.191	0.204	0.186	0.179	0.17
100 µM, coculture fibroblast: HUF	0.471	0.336	0.304	0.267	0.229	0.24	0.214	0.199	0.191
100 µM, coculture fibroblast: Hs5	0.344	0.224	0.205	0.22	0.159	0.145	0.123	0.118	0.107
100 µM, coculture fibroblast: Hs27A	0.139	0.0835	0.081	0.0899	0.0666	0.0836	0.0751	0.0725	0.0927
100 µM, coculture fibroblast: Hs343T	0.342	0.281	0.274	0.298	0.26	0.263	0.243	0.251	0.24
100 µM, coculture fibroblast: WS1	0.381	0.336	0.351	0.319	0.303	0.317	0.305	0.293	0.29
